Source: paper PMC7686350
No constants are given. Whether binding was seen depends on the method and setting. In cells and extracts the contact can be indirect. Some results given as binding are weak or reduced against the parent protein; the word gives no strength.

Amino acid sequences for entries named in this document (tags omitted).
UniProt P13864: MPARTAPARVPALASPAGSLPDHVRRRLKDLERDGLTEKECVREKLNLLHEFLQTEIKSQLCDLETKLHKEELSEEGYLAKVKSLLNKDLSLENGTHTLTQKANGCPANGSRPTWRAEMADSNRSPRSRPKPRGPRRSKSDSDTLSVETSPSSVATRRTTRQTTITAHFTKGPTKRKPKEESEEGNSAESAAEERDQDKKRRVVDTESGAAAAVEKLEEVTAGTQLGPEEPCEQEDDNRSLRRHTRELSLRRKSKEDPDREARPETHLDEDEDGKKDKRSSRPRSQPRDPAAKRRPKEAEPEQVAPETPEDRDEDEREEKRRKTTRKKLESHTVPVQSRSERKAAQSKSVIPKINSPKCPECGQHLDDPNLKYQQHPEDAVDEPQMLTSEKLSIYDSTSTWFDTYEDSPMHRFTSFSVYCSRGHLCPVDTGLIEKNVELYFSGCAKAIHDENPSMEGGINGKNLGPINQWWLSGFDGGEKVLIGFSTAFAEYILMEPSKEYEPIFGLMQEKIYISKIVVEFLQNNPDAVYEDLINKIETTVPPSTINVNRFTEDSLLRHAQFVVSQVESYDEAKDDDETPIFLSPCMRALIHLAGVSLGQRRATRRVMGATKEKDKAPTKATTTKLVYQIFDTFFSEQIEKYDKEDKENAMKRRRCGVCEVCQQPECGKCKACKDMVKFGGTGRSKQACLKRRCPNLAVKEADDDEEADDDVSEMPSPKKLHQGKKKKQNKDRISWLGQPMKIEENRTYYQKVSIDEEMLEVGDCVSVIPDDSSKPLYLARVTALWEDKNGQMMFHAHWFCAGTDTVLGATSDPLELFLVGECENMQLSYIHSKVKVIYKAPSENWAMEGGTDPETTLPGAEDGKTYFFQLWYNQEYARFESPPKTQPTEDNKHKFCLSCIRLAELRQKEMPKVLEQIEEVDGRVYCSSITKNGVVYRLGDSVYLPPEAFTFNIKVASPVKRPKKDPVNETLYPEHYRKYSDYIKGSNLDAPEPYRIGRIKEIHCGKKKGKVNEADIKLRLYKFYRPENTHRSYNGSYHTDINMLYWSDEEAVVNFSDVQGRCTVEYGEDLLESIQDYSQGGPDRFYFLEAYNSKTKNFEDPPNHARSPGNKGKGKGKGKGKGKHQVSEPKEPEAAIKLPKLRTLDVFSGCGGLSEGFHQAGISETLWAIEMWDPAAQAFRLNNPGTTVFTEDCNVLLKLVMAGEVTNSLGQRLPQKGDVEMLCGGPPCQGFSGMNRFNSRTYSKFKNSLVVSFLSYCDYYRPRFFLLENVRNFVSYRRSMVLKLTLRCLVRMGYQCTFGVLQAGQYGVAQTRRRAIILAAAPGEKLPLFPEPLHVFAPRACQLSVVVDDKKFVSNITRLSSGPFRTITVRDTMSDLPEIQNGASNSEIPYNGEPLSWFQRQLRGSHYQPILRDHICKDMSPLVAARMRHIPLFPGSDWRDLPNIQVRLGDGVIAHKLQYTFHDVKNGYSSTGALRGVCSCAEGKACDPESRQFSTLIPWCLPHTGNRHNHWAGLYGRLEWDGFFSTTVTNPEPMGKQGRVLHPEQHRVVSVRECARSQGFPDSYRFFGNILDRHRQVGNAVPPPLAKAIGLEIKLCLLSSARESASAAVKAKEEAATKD

Molecular target: T1, Small Heterodimer Partner (SHP/NR0B2), endogenous in mouse liver (mouse (endogenous in mouse liver)) (UniProt Q62227)
T1 sequence: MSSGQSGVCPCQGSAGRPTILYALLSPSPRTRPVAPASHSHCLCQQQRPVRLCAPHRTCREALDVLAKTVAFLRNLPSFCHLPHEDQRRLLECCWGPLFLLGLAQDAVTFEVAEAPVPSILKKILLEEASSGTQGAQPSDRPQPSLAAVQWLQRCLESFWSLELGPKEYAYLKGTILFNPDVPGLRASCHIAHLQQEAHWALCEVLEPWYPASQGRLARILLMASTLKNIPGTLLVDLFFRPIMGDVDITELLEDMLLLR
Test: co-IP; mouse liver extracts; mice fasted overnight and treated with vehicle or FGF19 for 2 h, or refed normal chow for the indicated times (C57BL/6, FGF15-KO mice or littermates); CoIP buffer 50 mM Tris-HCl pH 8.0, 150 mM NaCl, 2 mM EDTA, 0.5% NP-40, 5% glycerol; 1-2 ug antibody 3 h, protein G agarose; bound proteins detected by IB

Substance | binding
DNMT1, endogenous in mouse liver (from UniProt P13864 1-1620) (enzyme) | no binding
DNMT3B, endogenous in mouse liver (from UniProt O88509 1-859) (enzyme) | binds
